Data reported in article PMC5996148.
The list shows a part of the results.

How the values were obtained:
Assay in all cases: protein microarray (ProtoArray v5.0), streptavidin-Alexa Fluor 647
Conditions in all cases: 3'-biotin; 20 mM Tris (pH 7.5), 5 mM MgCl2, 100 mM KCl, 0.1% Tween-20, A/T-rich and random oligonucleotide blockers; temperature not stated; high values mean tight binding
TMEM186 (human) = system: TMEM186 (human)
TMEM19 (human) = system: TMEM19 (human)
TMEM25 (human) = system: TMEM25 (human)
TMEM27 (human) = system: TMEM27 (human)
TMEM41A (human) = system: TMEM41A (human)
TMEM68 (human) = system: TMEM68 (human)
TMEM98 (human) = system: TMEM98 (human)
TNFSF15 (human) = system: TNFSF15 (human)
TNIP1 (human) = system: TNIP1 (human)
[1] = system: TOM1-like protein 2 (human)

“GGTGACAGGGGTATGGGGAGGGG [G4-2 biotinylated (Ct1)]” was tested, and the binding signal (TMEM186 (human)) was -0.374 z-score, the binding signal (TMEM19 (human)) was -0.385 z-score and the binding signal (TMEM25 (human)) was -0.387 z-score. For the same sequence, the binding signal (TMEM27 (human)) was -0.385 z-score, the binding signal (TMEM41A (human)) was -0.373 z-score and the binding signal (TMEM68 (human)) was -0.372 z-score. The binding signal (TMEM98 (human)) was -0.37 z-score, the binding signal (TNFSF15 (human)) was -0.36 z-score and the binding signal (TNIP1 (human)) was -0.372 z-score. It also gave a binding signal [1] of -0.401 z-score.
